The experiment deals with T1, C9JI46 and related entries (UniProt Q8N3X6).
T1 sequence (whole entry): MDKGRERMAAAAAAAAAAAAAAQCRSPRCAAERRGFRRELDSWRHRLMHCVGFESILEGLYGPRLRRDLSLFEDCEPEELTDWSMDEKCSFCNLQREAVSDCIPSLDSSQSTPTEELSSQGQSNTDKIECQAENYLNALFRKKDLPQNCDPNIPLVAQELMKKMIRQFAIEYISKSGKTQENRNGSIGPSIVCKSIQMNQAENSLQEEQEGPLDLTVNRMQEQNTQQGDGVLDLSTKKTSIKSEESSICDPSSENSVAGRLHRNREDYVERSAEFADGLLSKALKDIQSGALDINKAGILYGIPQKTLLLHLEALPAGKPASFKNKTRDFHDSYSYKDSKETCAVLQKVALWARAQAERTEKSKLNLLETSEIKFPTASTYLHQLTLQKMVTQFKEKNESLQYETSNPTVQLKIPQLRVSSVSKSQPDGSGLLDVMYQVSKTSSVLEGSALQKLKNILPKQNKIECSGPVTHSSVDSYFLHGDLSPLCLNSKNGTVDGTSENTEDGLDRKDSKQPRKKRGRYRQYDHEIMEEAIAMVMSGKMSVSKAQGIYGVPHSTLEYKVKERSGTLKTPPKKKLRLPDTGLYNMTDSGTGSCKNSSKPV
Briefly: NP40-soluble protein abundance relative to vehicle (solubility fold change) (ratio); higher = more soluble protein in presence of GTP. The protocol:
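Solubility proteome profiling in Jurkat crude lysate. Lysate was treated with Mg-GTP (0.1-10 mM) for 10 min at room temperature and 3 min at 37 °C, then solubilised with 0.8% NP40 and benzonase, followed by ultracentrifugation. Proteins were quantified by TMT10 LC-MS/MS; the value is the NP40-soluble abundance relative to the NP40-processed vehicle, from 3 independent experiments.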

± gives the standard deviation of the averaged measurements. Some of the results follow.

Turning to `Nc1nc2c(ncn2[C@@H]2O[C@H](COP(=O)(O)OP(=O)(O)OP(=O)(O)O)[C@@H](O)[C@H]2O)c(=O)[nH]1` [guanosine triphosphate], the NP40-soluble protein abundance (concentration: 0.1mM) worked out at 0.974 ± 0.18; the NP40-soluble protein abundance (concentration: 0.5mM) is 1.04 ± 0.17; the NP40-soluble protein abundance (concentration: 1mM) stood at 1.04 ± 0.038; the NP40-soluble protein abundance (concentration: 2mM) stood at 1.09 ± 0.18; the NP40-soluble protein abundance (concentration: 4mM) was found to be 0.988 ± 0.13; the NP40-soluble protein abundance (concentration: 6mM) worked out at 0.989 ± 0.19. The NP40-soluble protein abundance (concentration: 8mM) came to 1.07 ± 0.13 and the NP40-soluble protein abundance (concentration: 10mM) was determined as 1.04 ± 0.2.

These data come from the supplement of paper PMC6411743.
